# Measured values published in the supplement of paper PMC7666118.
# Some of the results follow.
# Target: T1, STX2 (UniProt P32856)
# T1 sequence (whole entry): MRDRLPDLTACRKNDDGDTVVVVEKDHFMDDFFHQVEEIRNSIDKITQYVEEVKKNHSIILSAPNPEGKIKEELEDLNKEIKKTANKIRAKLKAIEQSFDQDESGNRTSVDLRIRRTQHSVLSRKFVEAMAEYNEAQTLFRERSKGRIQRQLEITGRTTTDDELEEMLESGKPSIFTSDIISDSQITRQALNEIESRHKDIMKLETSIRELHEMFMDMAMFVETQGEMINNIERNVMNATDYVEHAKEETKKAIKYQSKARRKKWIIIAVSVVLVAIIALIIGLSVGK
# Test: dose-dependent thermal stabilisation call (2D-TPP, DLPTP, 10% FDR) (binary (1 = stabilised)); higher = stabilised by the compound
# Conditions: system: HL-60 intact cells; concentration range 0.04-10 µM
# Procedure: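 2D thermal proteome profiling in intact HL-60 cells treated with BRD-3811 (0, 0.04, 0.29, 2, 10 uM) for 90 min at 37 C, then heated 3 min at one of 12 temperatures (42-63.9 C). Soluble protein was quantified by TMT10 MS. The value is the DLPTP call of the paper: dose-dependent thermal stabilisation over all temperatures at 10% FDR (F-test of a dose-response against a flat model); one experiment, one call per tested protein.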
row,SMILES,dose-dependent thermal stabilisation call
1,COc1ccc(Cn2ccc3cc(C)c(C(=O)NO)cc32)cc1,inactive: 0
